Measurements taken from publication PMC11231337.
Results are given in words; binding and its absence hold for the method and conditions named. Binding seen in cells or lysates may run through a third protein. Some entries that bind do so weakly or less than the wild type. For part of these data: Tags and fused reporters may be left off the sequences shown.

Sequences of proteins named here, by UniProt entry; tags and fusion partners are left off. Residues count along the entry.
UniProt Q9NZQ7, residues 19-290: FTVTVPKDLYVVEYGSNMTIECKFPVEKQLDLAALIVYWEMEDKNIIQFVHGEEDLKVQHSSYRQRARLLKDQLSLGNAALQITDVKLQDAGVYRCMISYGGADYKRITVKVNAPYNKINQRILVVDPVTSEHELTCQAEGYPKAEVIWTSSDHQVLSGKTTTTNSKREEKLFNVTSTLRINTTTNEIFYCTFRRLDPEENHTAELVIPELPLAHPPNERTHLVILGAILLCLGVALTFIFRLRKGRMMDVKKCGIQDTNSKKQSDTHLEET

Assays:
[1] = target: Flag-tagged PD-L1 (human) (UniProt Q9NZQ7); test: co-IP; HEK293T cells transfected with Flag-tagged PD-L1 and Myc-tagged PPM1B for 48 h; immunoprecipitation followed by immunoblotting
[2] = target: PD-L1 overexpressed in A549 cells (human) (UniProt Q9NZQ7); test: co-IP; co-immunoprecipitation with PD-L1 from A549 and H460 cells (PD-L1 overexpressing vector or PD-L1 siRNA, 24 h); immunoblot for PPM1B and p38 MAPK; also after 24 h treatment with rhPD-1 (1 μg/ml)
[3] = target: endogenous PD-L1 (human (endogenous in H460 and A549)) (UniProt Q9NZQ7); test: as above

B1: Myc-tagged PPM1B (enzyme, UniProt O75688 1-479)
chain: MGAFLDKPKTEKHNAHGAGNGLRYGLSSMQGWRVEMEDAHTAVVGIPHGLEDWSFFAVYDGHAGSRVANYCSTHLLEHITTNEDFRAAGKSGSALELSVENVKNGIRTGFLKIDEYMRNFSDLRNGMDRSGSTAVGVMISPKHIYFINCGDSRAVLYRNGQVCFSTQDHKPCNPREKERIQNAGGSVMIQRVNGSLAVSRALGDYDYKCVDGKGPTEQLVSPEPEVYEILRAEEDEFIILACDGIWDVMSNEELCEYVKSRLEVSDDLENVCNWVVDTCLHKGSRDNMSIVLVCFSNAPKVSDEAVKKDSELDKHLESRVEEIMEKSGEEGMPDLAHVMRILSAENIPNLPPGGGLAGKRNVIEAVYSRLNPHRESDGASDEAEESGSQGKLVEALRQMRINHRGNYRQLLEEMLTSYRLAKVEGEESPAEPAATATSSNSDAGNPVTMQESHTESESGLAELDSSNEDAGTKMSGEKI
In the case of B1, the binding [1] is reported as “binds”.

B2: endogenous PPM1B (enzyme, UniProt O75688 1-479)
chain: B1 chain
B2 was tested, and the binding [2] was “binds” and the binding [3] was “binds”.
